Results as given in US10889748B2, “Process for preparing dibenzylamine quaternary ammonium salt high-temperature resistant corrosion inhibitor and applications thereof” (Southwest Petroleum University, priority 2018, dated 2021).

Assay: 4 h corrosion test at 90° C. in 20% hydrochloric acid
Conditions: P110 carbon steel, 1000 ppm inhibitor
Protocol: The corrosion inhibition performance of corrosion inhibitors in the embodiments 1 to 4 is determined by a 4 h corrosion test at 90° C. using 20% hydrochloric acid as a corrosive medium and P110 carbon steels. The amount of corrosion inhibitors is 1000 ppm.

Row | Compound | Surface morphology
1 | OC(C[N+]1(Cc2ccc3ccccc3c2)CCOCC1)C[N+](Cc1ccccc1)(Cc1ccccc1)Cc1ccc2ccccc2c1 (stereo not drawn) [Embodiment 1] | Smooth and flat
2 | OC(C[N+](Cc1ccccc1)(Cc1ccccc1)Cc1ccccc1)C[N+]1(Cc2ccccc2)C=Cc2ccccc21 (stereo not drawn) [Embodiment 2] | Smooth and flat
3 | CCCCCC[N+](Cc1ccccc1)(Cc1ccccc1)CC(O)C[N+](CCCCCC)(Cc1ccccc1)CC(O)C[N+](CCCCCC)(Cc1ccccc1)Cc1ccccc1 (stereo not drawn) [Embodiment 3] | Smooth and flat
